## Primary screen of a compound library

Chains of the proteins cited; added tags and fusions are not shown.
UniProt E9BF75, entry or part of it: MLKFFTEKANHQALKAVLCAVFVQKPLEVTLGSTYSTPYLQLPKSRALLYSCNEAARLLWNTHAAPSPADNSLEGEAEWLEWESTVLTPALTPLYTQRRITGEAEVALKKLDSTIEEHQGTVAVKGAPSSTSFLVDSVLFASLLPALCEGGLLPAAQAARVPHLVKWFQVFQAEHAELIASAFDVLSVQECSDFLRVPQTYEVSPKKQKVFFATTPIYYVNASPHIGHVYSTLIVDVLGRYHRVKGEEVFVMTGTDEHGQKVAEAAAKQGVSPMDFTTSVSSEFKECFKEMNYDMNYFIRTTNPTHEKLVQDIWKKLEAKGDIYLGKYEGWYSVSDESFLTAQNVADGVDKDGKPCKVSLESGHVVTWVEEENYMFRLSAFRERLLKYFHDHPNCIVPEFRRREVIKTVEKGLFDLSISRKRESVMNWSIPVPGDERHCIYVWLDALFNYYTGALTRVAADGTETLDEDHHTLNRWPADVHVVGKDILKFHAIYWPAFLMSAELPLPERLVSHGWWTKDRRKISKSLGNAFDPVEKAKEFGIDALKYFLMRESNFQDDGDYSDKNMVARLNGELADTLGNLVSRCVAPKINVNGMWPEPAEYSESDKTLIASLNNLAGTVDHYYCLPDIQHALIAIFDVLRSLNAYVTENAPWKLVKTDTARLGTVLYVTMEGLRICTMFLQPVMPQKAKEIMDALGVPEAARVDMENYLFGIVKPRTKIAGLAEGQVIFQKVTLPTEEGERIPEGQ

Source: ChEMBL document CHEMBL3988442, “University of Dundee, Small-Polar-MMV Screening Library” (2021).

LdMetRS: 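Primary screen of methionyl-tRNA synthetase; the read-out is not stated. Target: Methionyl-tRNA synthetase (putative), Leishmania donovani (UniProt E9BF75). The test concentration is not given. The values are filed as inhibition. About 68,000 compounds were tested under these conditions; 0.035% (about 24) showed 50% or more at least once.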
Mtb heat-shock: 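Assay on Mycobacterium tuberculosis, filed only as a heat shock assay from Cornell; the read-out is not stated. The concentration is filed as 10 mM, unlikely as a test dose, so the dose is not known. Higher reads as stronger inhibition (inferred: compounds with an IC50 in retests scored well above the rest). Of about 69,000 compounds tested this way, about 930 (1.4%) reached 50% or more in at least one test.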

Results are percentages, as filed. How 0% and 100% were set is not recorded. Most values in the screen are low, and negative values occur. The compounds are a random part of those screened. A dash means the value is not listed here; it may have been measured.

| # | structure | LdMetRS | Mtb heat-shock |
|---|---|---|---|
| 1 | `CCCN1CCN(C(=O)c2cccc(C)n2)[C@H]2CS(=O)(=O)C[C@H]21` | -0.5495% | - |
| 2 | `COc1ccc2[nH]nc(CN3CCC(C(C)N(C)C)CC3)c2c1` (centres unmarked) | 6.933% | -13.64% |
| 3 | `Cc1nc2sc(C(=O)N3CCNC(=O)C3)c(C)c2c(=O)[nH]1` | 13.5% | 15.44% |
| 4 | `Cc1cc(C)cc(CNCCS(=O)(=O)N2CCOCC2)c1` | 4.348% | -32.46% |
| 5 | `Cc1nc(C)n(C2CCCN(C(=O)c3ccc(OC(C)C)nc3)C2)n1` (centres unmarked) | 13.02% | -4.358% |
| 6 | `Cn1ccnc1C(=O)N1CCCC(Cn2cc(CO)nn2)C1` (centres unmarked) | 17.5% | -47.6% |
| 7 | `Cc1noc(C)c1C(=O)N1CCSc2ccc(Cl)cc21` | 9.91% | 11.94% |
| 8 | `CCN(CC)CC(=O)N1CCCC1Cn1cccn1` (centres unmarked) | 24.51% | -1.185% |
| 9 | `CCN(CC)C(=O)c1ccc(Cl)c(NC(=O)c2csnn2)c1` | 13.32% | 5% |
| 10 | `Cc1ccc(OCC(O)CN(C)CC(=O)Nc2cc(C)on2)c(C)c1` (centres unmarked) | 0.8021% | -11.4% |
| 11 | `CCOc1ncccc1C(=O)N1CCN(C)C2(CCN(C)CC2)C1` | 8.02% | -16.2% |
| 12 | `CN1CCOC(CNCc2coc(-c3cccc(Cl)c3)n2)C1` (centres unmarked) | 11.11% | -24.5% |
| 13 | `COCC(=O)NCc1cc(=O)n2c(n1)CN(Cc1ccncc1)CCC2` | 21.19% | 8.457% |
| 14 | `Cn1c(CCC(=O)N2CCCC3(CC2)CNC(=O)O3)nc2cccnc21` (centres unmarked) | -0.9464% | -15.92% |
| 15 | `CC1=Nc2c(c(=O)[nH]n2C(C)C)C(c2ccc3c(c2)OCCO3)S1` (centres unmarked) | 11.82% | -14.26% |
| 16 | `CCS(=O)(=O)CC(=O)Nc1ccccc1N1CCc2ccccc21` | 5.59% | -4.775% |
| 17 | `O=C(Cc1cccs1)NCCNc1nccc(C(F)(F)F)n1` | 7.532% | 9.514% |
| 18 | `O=c1oc(-c2ccc(F)cc2)nn1CCS(=O)(=O)c1ccccc1` | 4.348% | -0.1053% |
| 19 | `CC1c2ncc(COCC3CC3)n2CCN1S(=O)(=O)N(C)C` (centres unmarked) | 13.41% | -19.99% |
| 20 | `Cc1cn[nH]c1C1COCCN1Cc1cscn1` (centres unmarked) | 14.06% | 18.22% |
| 21 | `Cc1nnsc1CN1C[C@H]2CC[C@@H]1CN(Cc1ccccn1)C2` | 22.45% | - |
| 22 | `Cc1noc(C(C)C)c1C(=O)NCc1cccc(N(C)C)c1` | 4.453% | 2.765% |
| 23 | `Cc1cc(F)ccc1C(=O)N1C[C@@H]2COC[C@]2(CN(C)C)C1` | 10.14% | - |
| 24 | `Cc1nc(-c2ccc(CC(=O)N3CCN(C(=O)C(C)C)CC3)cc2)cs1` | - | -2.445% |
| 25 | `Cc1ccccc1OC1CCN(CC(=O)Nc2ccn(C)n2)CC1` | 19.81% | - |
| 26 | `Cc1ccc(CN2CCOC3(CCCN(C(=O)c4ccco4)C3)C2)o1` (centres unmarked) | 8.795% | -25.04% |
| 27 | `Cc1cnn(CC(C)NCc2cc(=O)n3cc(C)ccc3n2)c1` (centres unmarked) | 16.4% | -31.25% |
| 28 | `CCOc1cccc(CNc2ccccc2Cl)c1O` | 6.364% | -20.17% |
| 29 | `O=C(c1ccccn1)N1CCC2(CC1)COC(COc1cccnc1)C2` (centres unmarked) | 10.46% | -16.15% |
| 30 | `CC(O)CNCc1ccccc1C(F)(F)F` (centres unmarked) | 8.271% | - |
| 31 | `CN(C)[C@H]1CN(C(=O)c2ccc3sc4c(c3c2)CCNC4=O)C[C@@H]1O` | 11.37% | 9.168% |
| 32 | `O=C(NCCc1cccs1)C1(N2CCCCC2)Cc2ccccc2C1` | 9.524% | -13.12% |
| 33 | `COCCN1C(=O)CC[C@@H]2[C@@H]1CCN2S(=O)(=O)C1CC1` | 19.22% | - |
| 34 | `Cn1cc(CN2CCCN(C(=O)c3ccc4ccccc4n3)CC2)cn1` | 10.22% | 17.21% |
| 35 | `CCn1cc(C(=O)n2nc(C)cc2C)c(S(=O)(=O)N2CCCCC2)n1` | 14.29% | -8.058% |
| 36 | `CN(C)c1ncc(-c2cccc(C(N)=O)c2)c(C2CNCCO2)n1` (centres unmarked) | 14.15% | - |
| 37 | `Cc1cccc(CN2CC[C@H]3O[C@H](C(=O)Nc4cnccn4)CC[C@H]32)n1` | 0% | - |
| 38 | `Cc1noc(C(C)C)c1C(=O)NCCCN1CCCC1` | 10.1% | 20.36% |
| 39 | `CCS(=O)(=O)N1CCC2(CN(C(=O)c3cscn3)C2)C1` | -8.271% | 5.52% |
| 40 | `N#Cc1ccccc1OCCN1CCCC1Cn1cncn1` (centres unmarked) | 12.58% | -16.6% |
| 41 | `[H][C@]12CC[C@@]3(N=C(CC)N(C)C3=O)[C@@]1([H])CN(CC)C2` | - | -2.625% |
| 42 | `O=C(CSc1ccccc1)Nc1cnn(CC(=O)N2CCCO2)c1` | 14.78% | 1.917% |

The last 3 entries again:

For N#Cc1ccccc1OCCN1CCCC1Cn1cncn1 (centres unmarked) the result was LdMetRS: 12.58%; Mtb heat-shock: -16.6%.
For [H][C@]12CC[C@@]3(N=C(CC)N(C)C3=O)[C@@]1([H])CN(CC)C2 the result was Mtb heat-shock: -2.625%.
For O=C(CSc1ccccc1)Nc1cnn(CC(=O)N2CCCO2)c1 the result was LdMetRS: 14.78%; Mtb heat-shock: 1.917%.